The other results are listed elsewhere or left out.

The chains behind the UniProt entries cited, without tags or fusion partners.
UniProt Q0JBA9, entry or part of it: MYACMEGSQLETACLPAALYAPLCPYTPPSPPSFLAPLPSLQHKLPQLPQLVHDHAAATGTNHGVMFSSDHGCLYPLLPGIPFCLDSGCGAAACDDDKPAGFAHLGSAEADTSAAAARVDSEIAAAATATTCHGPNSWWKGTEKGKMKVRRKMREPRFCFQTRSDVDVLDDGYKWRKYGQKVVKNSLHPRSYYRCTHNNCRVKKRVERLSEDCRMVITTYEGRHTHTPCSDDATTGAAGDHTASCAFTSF

This test has as its target OsWRKY34 (Oryza sativa, UniProt Q0JBA9 1-250). Put plainly: protein-binding microarray (RPBM); PBS, 2% BSA, 51.3 ng/ul salmon testes DNA, 50 uM zinc acetate, 200 nM TF, 25 C, 1 h; high values mean tight binding. The settings on record: protein: recombinant; tags: N-terminal polyhistidine and DsRed monomer fusion (pET32a); label: CyDye5-dUTP incorporated in the synthesized complementary strand; 3' TTTTT single-stranded linker to array surface; dsDNA, one strand shown. In a few lines: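 The binding signal is fluorescence intensity per feature, in arbitrary units, read on an Axon 4000B scanner. Polyhistidine- and DsRed-tagged transcription factors (N-terminal fusions) from E. coli BL21-CodonPlus were purified on Ni–NTA and applied at 200 nM for 1 h at 25 °C to a double-stranded, BSA-blocked custom Agilent array in buffer with 50 µM zinc acetate.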
With “TCTGTTCTTCCCTAGCGATGGTTGACTTGTTACTTCTCGACGGAGTCACCTAGTGCAG”, the binding signal is 12400 fluorescence intensity (a.u.). As to “TAGTTAGTGTCCCTGATGGGCCTGTTGAGGTATTGACTATCGGAGTCACCTAGTGCAG”, the binding signal was 8570 fluorescence intensity (a.u.). For “GTTACTATGGTTGTGGGCCTTACAAGCCCACTTTAGTCAACGGAGTCACCTAGTGCAG”, the binding signal was 8130 fluorescence intensity (a.u.). Consider “TGTCATTTGGCATGTTCCATTCCATCAAGTGTGATTAGACCGGAGTCACCTAGTGCAG”, for which the binding signal was 8690 fluorescence intensity (a.u.). As to “CCTTTCGTCCACCACCAGTCCACCACACAGCGGCCGGAGCCGGAGTCACCTAGTGCAG”, the binding signal was 9080 fluorescence intensity (a.u.).

On to “ATTTTGGATTTAACCGGCTTTTAAACTCGTCCATGTTTTCCGGAGTCACCTAGTGCAG”, for which the binding signal is 8770 fluorescence intensity (a.u.). The result for “ACTACTACCAGTACTGTTGTATCTGCCATTTTCTGCTCCTCGGAGTCACCTAGTGCAG” reads 10400 fluorescence intensity (a.u.); that for “ATTGTCTTTATCTATTCCCAGTGCATATATTTCATACTTTCGGAGTCACCTAGTGCAG”, 14900 fluorescence intensity (a.u.).

For the sequence “TCTCTTCTCTACCAATCATATTTATTCTTCATCTATTATGCGGAGTCACCTAGTGCAG”, the binding signal was 9020 fluorescence intensity (a.u.).

With “CCTGGTGTTTGATTTCCACAATTTTTTTTAATTGCTTACACGGAGTCACCTAGTGCAG”, the binding signal is 11900 fluorescence intensity (a.u.). For the sequence “CTTTTACAGGAGTAGTTTTGTTTTAGGCTGTGTTTAGATCCGGAGTCACCTAGTGCAG”, the binding signal was 8520 fluorescence intensity (a.u.). The value for “CATCATCATCCGTCTTCTTCCACTCGCGTAGAAGCAAGTCCGGAGTCACCTAGTGCAG” was 8940 fluorescence intensity (a.u.); that for “AGATCTTGATCCGCTCTGCCTCAATCTTCCACACGACCACCGGAGTCACCTAGTGCAG” was 8920 fluorescence intensity (a.u.). As to “AGTAGTAGTGCAACTTCCTTTTTCCGATGTATCTTTTTTTCGGAGTCACCTAGTGCAG”, the binding signal was 9630 fluorescence intensity (a.u.). Consider “ATCCTAATATTTTTGTGTTGAAATTCGGTCTTCACTTTTCCGGAGTCACCTAGTGCAG”, for which the binding signal was 11500 fluorescence intensity (a.u.). Turning to “ACATTACCCTTTTGATCTCATGGCTTTGACTCTTAGGGTTCGGAGTCACCTAGTGCAG”, the binding signal was 8760 fluorescence intensity (a.u.). The result for “AACAGGTGGGTCCATTAGCGCCACACTATTTTCTCTCCATCGGAGTCACCTAGTGCAG” reads 9590 fluorescence intensity (a.u.); that for “CTTCTCTCCTCTCCGCTGTGGTTTCTTGCTGGTTCTTGGACGGAGTCACCTAGTGCAG”, 10400 fluorescence intensity (a.u.); that for “ACTGCTGTACATCATCATTGACATGCTATAATTTTTTTTCCGGAGTCACCTAGTGCAG”, 9080 fluorescence intensity (a.u.). For the sequence “ACCATGCCACCATATGTCTGATTAGCACACTTCTTTTAAACGGAGTCACCTAGTGCAG”, the binding signal was 8720 fluorescence intensity (a.u.). Consider “TGCATCTTCTTCTTCTTCCTCCCTTTGCCTTGGATTTTCCCGGAGTCACCTAGTGCAG”, for which the binding signal was 8800 fluorescence intensity (a.u.). As for “GTGTTGAAAATTTGGCACATCCTTTGTTTTTTCCCCTTTTCGGAGTCACCTAGTGCAG”, the binding signal is 9980 fluorescence intensity (a.u.).

On to “ACCCTATTTTAATTACCACATTATATGCATACATTTCATGCGGAGTCACCTAGTGCAG”, for which the binding signal is 8280 fluorescence intensity (a.u.).

As to “AGTATTCTCTCTCTCTAGTACATTCTCATGTTCTTTCAGGCGGAGTCACCTAGTGCAG”, the binding signal was 8140 fluorescence intensity (a.u.). The value for “CGCCGCCCATCTTGTCCCAATTCGGCTCCTATAAATTTCCCGGAGTCACCTAGTGCAG” was 8750 fluorescence intensity (a.u.).

Take “ATTATTATCCTTGCTCTCATTCTCTCTCTTTGATTCTCTCCGGAGTCACCTAGTGCAG”: the binding signal was 9870 fluorescence intensity (a.u.). Turning to “CGTTTCAGTTTATAAGACGTTTTGACTCTTGTCAAATTTTCGGAGTCACCTAGTGCAG”, the binding signal is 9300 fluorescence intensity (a.u.). The value for “AAAGAAACAGAGTTATCTGCCACACGTATTTTTTTCTTGTCGGAGTCACCTAGTGCAG” was 9110 fluorescence intensity (a.u.); that for “TCTTACTTGACCCTTCTTTCTTGTCCATACAGATTGGGCCCGGAGTCACCTAGTGCAG” was 9090 fluorescence intensity (a.u.). Turning to “GTTTCTTTTTTTTTCTCCTTTCCACCTATAGGTTACTAGCCGGAGTCACCTAGTGCAG”, the binding signal was 8220 fluorescence intensity (a.u.). The result for “CATCATTTACATCTTGGGCATTTGCGATAGCTCTAGGGTTCGGAGTCACCTAGTGCAG” reads 8500 fluorescence intensity (a.u.). Take “AAAGTTCGTTTCAGCTCCTGTTATGATCCATCTACACCTTCGGAGTCACCTAGTGCAG”: the binding signal was 9180 fluorescence intensity (a.u.). The result for “GATACACCCATGCCAATTCATTTGCCTTTGATTAATAAAACGGAGTCACCTAGTGCAG” reads 8690 fluorescence intensity (a.u.); that for “CCTCGACGACCTCTACACCATGTGGCGCTACCTGCCGTCGCGGAGTCACCTAGTGCAG”, 8580 fluorescence intensity (a.u.).

In the case of “ACGTAGTTTTTCTGTGTTTTTTTTCTTATTGATTATAGATCGGAGTCACCTAGTGCAG”, the binding signal is 9190 fluorescence intensity (a.u.). On to “CCCAACACGGCCCATCCACGCAGCCTTCTTTGCCTATATCCGGAGTCACCTAGTGCAG”, for which the binding signal is 10200 fluorescence intensity (a.u.). For the sequence “AAGTCTGTTTATAAAAGTCGACATGTGTATCACATTATATCGGAGTCACCTAGTGCAG”, the binding signal was 8780 fluorescence intensity (a.u.). As for “AAAAAGTCAACGGCGTCAAACATATTGAAACGGAGGGAGTCGGAGTCACCTAGTGCAG”, the binding signal is 8240 fluorescence intensity (a.u.). Turning to “CCACTCCGACTAAGCCTTCACATTTCTTCTCTAGCGTTACCGGAGTCACCTAGTGCAG”, the binding signal was 11300 fluorescence intensity (a.u.).

On to “ACATGCTGCATTTCTTTTTTCATGGTTTGGCACTTATTTACGGAGTCACCTAGTGCAG”, for which the binding signal was 9200 fluorescence intensity (a.u.). Take “CTGAACTTTTTTTTTGCTTAAATCCTCTGTATCACCCCAACGGAGTCACCTAGTGCAG”: the binding signal is 8740 fluorescence intensity (a.u.). The value for “GGCAGCCCGACCTACGCGTACCCACGTATTCCCCACCTTACGGAGTCACCTAGTGCAG” was 10300 fluorescence intensity (a.u.).

The values above are taken from article PMC7819943, “Rice protein-binding microarrays: a tool to detect cis-acting elements near promoter regions in rice”.
